PubChem BioAssay AID652272, Drosophila RNAi Screening Center – 2013
Purpose: 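Genome-wide knock-down search for components of Hedgehog signalling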 (primary screen). Cells: Drosophila clone 8 (Cl8) cells. Knock-down reagent: long dsRNA against Drosophila genes. Detection: 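Firefly light from a Hedgehog-responsive ptc promoter reporter and Renilla reference light, both read on a plate reader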. Direction: firefly Hh reporter signal: higher = more ptc reporter light; Renilla reference signal: higher = more Renilla control light. Hit rule: 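Hit when the z-score averaged over two replicates is under -2 or over +3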. Calls: active = hit: reporter lowered or raised; inactive = not a hit.
In all, the deposit lists about 21,000 reagents; this is an unselected part of those that have a named target and a result. In the full data, 503 (2.4%) were called active. 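Raw plate light values, not normalised; calls rest on replicate z-scores that were not deposited; hits include reporter decreases as well as increases.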 Unmarked entries are inactive. A plus sign joins genes that one reagent is predicted to hit. Reagent sequences are not shown. The record does not give: the amount of reagent, the time to read-out.

no.	target	PubChem SID	firefly Hh reporter signal, replicate 1	firefly Hh reporter signal, replicate 2	firefly Hh reporter signal, replicate 3	Renilla reference signal, replicate 1	Renilla reference signal, replicate 2
1	ifc (infertile crescent)	SID104183341	1.41e5	72596		5491	3586
2	CG9981	SID104200017	66820	1.85e5		1664	7034
3	CG2812	SID104184111	71565	53506		2112	4476
4	CG13010	SID104199321	50599	93986		1904	5370
5	CG16865	SID104181696	76250	42720		2054	4145
6	CG34135 + CG11768	SID104192494	1.85e5			3796	
7	CG18135	SID104190087	1.25e5	71329		4886	2585
8	Ilk (Integrin linked kinase)	SID104191660	4.63e5	1.05e5		4680	4680
9	CG6867	SID104199805	86976	3.04e5		2449	13420
10	CG5888	SID104181721	64171	28850		2323	1154
11	CG33642	SID104181117	7.70e5	2.62e5		40061	10853
12	CG17294	SID104182388	1.02e5	1.26e5		3780	3148
13	msps (mini spindles)	SID104196796	1.53e5	70388		5645	2774
14	Prat2 (Phosphoribosylamidotransferase 2)	SID104189484	1.24e5	1.15e5		5236	4760
15	hrm (hermes)	SID104184645	89357	69657		1808	5706
16	CG43072	SID104191480	98651	1.62e5		3977	4809
17	CG7183	SID104196002	1.05e5	97175		4416	4131
18	Vtld + CG42529	SID104189894	1.33e5	1.22e5		4748	3421
19	E(spl)m6-BFM (Enhancer of split m6, Bearded family member)	SID104196785	5.68e5	1.12e5		29735	3514
20	Def (Defensin)	SID104187190	1.00e5	68212		2668	5472
21	CG18190	SID104186506	1.04e5	44119		2123	2034
22	tey (teyrha-meyrha)	SID104190834	1.96e5	5.73e5	1.83e5	6737	5990
23	CG17780	SID104195057	5.28e5	89680		27325	3227
24	slo (slowpoke)	SID104193477	43296	3.97e5		17300	9690
25	slo (slowpoke)	SID104196849	89892	97494		3361	3671
26	CG8191	SID104199883	75161	1.74e5		2374	7890
27	CG14591	SID104184660	1.01e5	1.05e5		2492	7757
28	adp (adipose)	SID104186708	1.29e5	1.02e5		5859	4662
29	HIPP1 (HP1 and insulator partner protein 1)	SID104191540	54540	45110		2658	1984
30	CG9588	SID104196296	68049	82646		1532	1926
31	CG31793	SID104182397	63336	34186		1889	3297
32	CG12464	SID104185948	62873	51924		1545	4076
33	Cyp28a5 (Cytochrome P450 28a5)	SID104183089	1.15e5	98562		4311	4009
34	CG34393	SID104180211	1.07e5	63213		2803	6455
35	CG34393	SID104180502	1.31e5	64882		3237	6615
36	CG17019	SID104186434	70285	52521		2744	1824
37	LManI (Lysosomal alpha-mannosidase I)	SID104182630	85386	53197		2628	5354
38	Psn (Presenilin)	SID104191535	89332	1.01e5		3569	2709
39	CG32407	SID104189581	55264	43750		6436	3072
40	EndoG (Endonuclease G)	SID104187084	1.38e5	5.93e5	93925	5397	35036
41	CG31365	SID104195402	1.87e5	1.01e5		7162	4333
42	CG4377	SID104184259	75292	95137		3462	3799
43	Ggt-1 (gamma-glutamyl transpeptidase)	SID104199785	1.84e5	1.10e5		4246	2400
44	CG3823	SID104198117	76517	2.05e5		2209	6547
45	CG7133	SID104191590	1.45e5	1.11e5		5387	4362
46	CG18262	SID104197941	86605	2.08e5		3088	8385
47	DNAlig4 (DNA ligase 4)	SID104199228	90723	2.49e5		3909	10843
48	sro (shroud)	SID104194261	71795	4.30e5	1.01e5	2192	2920
49	Octbeta1R (Octopamine beta1 receptor)	SID104195926	6.07e5	1.61e5		37824	423
50	vih (vihar)	SID104189570	30442	43978	59589	5305	3969
51	CG42713	SID104180842	6.22e5	2.16e5		28976	8315
52	serp (serpentine)	SID104190827	1.40e5	1.40e5		4994	4001
53	serp (serpentine)	SID104190828	1.09e5	1.47e5		4083	3815
54	Mettl14 (Methyltransferase like 14)	SID104182865	63603	76940		2761	3001
55	CenB1A (Centaurin beta 1A)	SID104196715	7.83e5	2.32e5		32171	7005
56	Dip-C (Dipeptidase C)	SID104195647	1.17e5	79383		4771	3216
57	CG5021	SID104190261	42631	60448		5697	5196
58	CG13707	SID104188108	44768	66816		5216	4913
59	CG9664	SID104180517	89945	88604		4349	4326
60	CG9436	SID104184797	1.04e5	98273		4347	4115
61	MRP (Multidrug-Resistance like Protein 1)	SID104182734	98875	36208		4290	2000
62	Madm (MLF1-adaptor molecule)	SID104191921	88490	1.24e5		3724	3286
63	ct (cut)	SID104198549	98775	38186		6397	1888
64	mei-S332 (meiotic from via Salaria 332)	SID104184496	63811	71158		2762	2999
65	CG9813	SID104196361	1.56e5	85024		5772	2135
66	nwk (nervous wreck)	SID104190231	1.83e5	78044		6992	3180
67	nwk (nervous wreck)	SID104190234	28801	41136		960	3720
68	sp3 (spermathreecae)	SID104196146	7.51e5	1.60e5		44985	3060
69	CG33704	SID104183630	1.09e5	2.30e5		3059	11285
70	CG34030	SID104188658	1.24e5	2.33e5		3437	9082
71	ppk18 (pickpocket 18)	SID104182008	77985	52292		2199	5033
72	ppk18 (pickpocket 18)	SID104182009	1.01e5	57146		2555	5203
73	CG42561	SID104185468	95933	2.21e5		3180	8022

6 entries from above in another layout.
nwk (nervous wreck) [SID104190234] — firefly Hh reporter signal, replicate 1 = 28801; firefly Hh reporter signal, replicate 2 = 41136; Renilla reference signal, replicate 1 = 960; Renilla reference signal, replicate 2 = 3720
sp3 (spermathreecae) [SID104196146] — firefly Hh reporter signal, replicate 1 = 7.51e5; firefly Hh reporter signal, replicate 2 = 1.60e5; Renilla reference signal, replicate 1 = 44985; Renilla reference signal, replicate 2 = 3060
CG33704 [SID104183630] — firefly Hh reporter signal, replicate 1 = 1.09e5; firefly Hh reporter signal, replicate 2 = 2.30e5; Renilla reference signal, replicate 1 = 3059; Renilla reference signal, replicate 2 = 11285
CG34030 [SID104188658] — firefly Hh reporter signal, replicate 1 = 1.24e5; firefly Hh reporter signal, replicate 2 = 2.33e5; Renilla reference signal, replicate 1 = 3437; Renilla reference signal, replicate 2 = 9082
ppk18 (pickpocket 18) [SID104182008] — firefly Hh reporter signal, replicate 1 = 77985; firefly Hh reporter signal, replicate 2 = 52292; Renilla reference signal, replicate 1 = 2199; Renilla reference signal, replicate 2 = 5033
ppk18 (pickpocket 18) [SID104182009] — firefly Hh reporter signal, replicate 1 = 1.01e5; firefly Hh reporter signal, replicate 2 = 57146; Renilla reference signal, replicate 1 = 2555; Renilla reference signal, replicate 2 = 5203
